Experimental data published in paper PMC11602973, “Structural basis of nucleic acid recognition by the N-terminal cold shock domain of the plant glycine-rich protein AtGRP2”.
The comparison behind a weaker result is the experiment's own reference, which may not be listed here. Where a protein sequence is shown, tags need not be part of it.

Target: T1, AtGRP2-CSD1-90 WT (Arabidopsis thaliana) (UniProt Q41188)
T1 sequence (looked up): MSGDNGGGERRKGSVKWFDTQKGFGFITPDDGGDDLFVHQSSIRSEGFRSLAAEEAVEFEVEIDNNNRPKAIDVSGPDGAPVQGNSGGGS
Test: NMR HSQC titration
Details: 20 mM sodium phosphate pH 6.5, 50 mM NaCl, 25 C (fluorescence), NMR titrations in the same buffer plus 250 uM PMSF, 3 mM NaN3, 5% D2O, 298 K, recombinant protein, residues 1-90, protein details: N-terminal Trx(6 aa)-His6-TEV tag, cleaved

CCCCCCC [C7]: binds more weakly (CSPs lower than T7, similar to U7, single-stranded DNA).

UUUUUUU [U7]: binds more weakly.
